Assay results taken from the supplement of paper PMC3334620.
Over roughly 33,000 sequences, “E-score (-0.5 to 0.5)” has its median near -0.0014; the highest 2% begin near 0.25. The list shows a part of the results.

Target: T1, Cad1 (UniProt P24813)
T1 sequence: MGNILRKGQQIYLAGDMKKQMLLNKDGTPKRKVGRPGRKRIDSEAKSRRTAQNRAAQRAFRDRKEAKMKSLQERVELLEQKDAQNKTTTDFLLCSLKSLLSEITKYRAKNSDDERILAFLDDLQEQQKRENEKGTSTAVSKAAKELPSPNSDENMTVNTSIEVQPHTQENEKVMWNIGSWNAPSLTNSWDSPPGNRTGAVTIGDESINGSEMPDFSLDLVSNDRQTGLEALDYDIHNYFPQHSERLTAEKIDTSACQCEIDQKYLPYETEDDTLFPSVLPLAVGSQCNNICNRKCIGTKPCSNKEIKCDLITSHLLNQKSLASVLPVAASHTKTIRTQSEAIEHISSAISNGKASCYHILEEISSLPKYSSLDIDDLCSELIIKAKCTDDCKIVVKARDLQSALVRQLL
Test: PBM E-score (8-mer binding enrichment) (E-score (-0.5 to 0.5)); higher = stronger / more preferred TF binding
Details: protein concentration: 100 nM; construct: GST-full length
In short: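 Universal all-10-mer Agilent arrays, fresh or stripped once, were converted to double-stranded form by primer extension. GST-tagged yeast transcription factors from PURExpress in vitro transcription/translation, full-length or DNA-binding domain only, were applied at about 100-200 nM and detected with fluorescent anti-GST. After masliner normalisation, the Universal PBM Analysis Suite scored each ungapped eight-base word together with its reverse complement by E-score.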

| Sequence | PBM E-score |
| --- | --- |
| CCTCTCCC | -0.264 |
| AGAGTTCG | 0.213 |
| GTGACGTA | 0.0413 |
| AGTTCCAG | -0.0736 |
| CGTAAGGA | -0.00028 |
| CAGGCCTA | 0.0617 |
| CCTCAGAA | -0.126 |
| CACTGATA | 0.0185 |
| ACCTACGA | -0.162 |
| CCAGTCGC | -0.0749 |
| AGTGCCGC | -0.0396 |
| CGCCCCGA | -0.122 |
| AGGTTAAG | -0.136 |
| CCCCAACA | -0.213 |
| GCACAAAC | -0.0491 |
| CCTGAAGG | -0.252 |
| GATGGGAA | -0.27 |
| CATCGATC | 0.0949 |
| CAGACGCA | 0.0311 |
| CGGTAACG | -0.0233 |
| GGCGAGCC | -0.0683 |
| CGGCCTAA | -0.0467 |
| AGATGAAA | 0.02 |
| CTAGCGAA | -0.235 |
| GATGGGCA | 0.0201 |

| Sequence | PBM E-score |
| --- | --- |
| GGTTCCTA | -0.00232 |
| ACAAGAGG | -0.182 |
| CAAGTCAA | 0.0242 |
| ACAGTCCA | 0.129 |
| TAATGCTA | 0.234 |
| GTGGCTCA | -0.0505 |
| CAACCATG | 0.109 |
| AGCTTGAG | -0.123 |
| CCGCGGCA | 0.168 |
| CGCTTCCC | -0.206 |
| TAGTAGCA | 0.0478 |
| AAAATCTG | 0.159 |
| AAAGCACC | -0.0654 |
| ATCTGTGA | 0.103 |
| CGTATGAG | -0.0984 |
| ATCTCCAG | 0.155 |
| GCCTCGGA | -0.0438 |
| ACACACAT | 0.0505 |
| GACTCTCA | -0.0683 |
| CAGTTGAG | -0.0801 |
| GGTTCTTA | -0.0816 |
| AGATCACT | 0.004 |
| GCTGCGAA | 0.0915 |
| CGACACAA | -0.0965 |
| ACACAGCC | 0.0823 |

| Sequence | PBM E-score |
| --- | --- |
| AGGTCGTC | -0.0601 |
| AATCACAT | 0.062 |
| AAGTACTT | -0.144 |
| CAGATAGC | -0.113 |
| GGCCGGGA | -0.0809 |
| TACGTCTA | 0.00372 |
| TGTTAACA | 0.159 |
| ACTTTTAG | 0.022 |
| CATCTAGA | 0.062 |
| ATGGTCGC | -0.127 |
| CATTGGCC | -0.231 |
| GGATATAA | 0.132 |
| CCTACCCA | -0.157 |
| GCTAGGAC | -0.0799 |
| TCCCTCAA | -0.0739 |
| ACGTGTCG | -0.0411 |
| GATTCGGA | 0.177 |
| CCATGATA | -0.0251 |
| AGAGACCT | -0.104 |
| ATACTCAG | 0.243 |
| ACATAAGC | 0.107 |
| GTGCACCA | -0.0263 |
| CGAGCTAA | -0.0827 |
| AGGCCTAT | -0.0221 |
| GCTAATGA | -0.0534 |

Given as tab-separated lines: entries from further up.
Sequence	PBM E-score
CAACCATG	0.109
AGCTTGAG	-0.123
CCGCGGCA	0.168
CGCTTCCC	-0.206
TAGTAGCA	0.0478
AAAATCTG	0.159
AAAGCACC	-0.0654
ATCTGTGA	0.103
CGTATGAG	-0.0984
ATCTCCAG	0.155
GCCTCGGA	-0.0438
ACACACAT	0.0505
GACTCTCA	-0.0683
CAGTTGAG	-0.0801
GGTTCTTA	-0.0816
AGATCACT	0.004
GCTGCGAA	0.0915
CGACACAA	-0.0965
ACACAGCC	0.0823
AGGTCGTC	-0.0601
AATCACAT	0.062
AAGTACTT	-0.144
CAGATAGC	-0.113
GGCCGGGA	-0.0809
TACGTCTA	0.00372
TGTTAACA	0.159
ACTTTTAG	0.022
CATCTAGA	0.062
CATTGGCC	-0.231
GGATATAA	0.132
CCTACCCA	-0.157
GCTAGGAC	-0.0799
TCCCTCAA	-0.0739
ACGTGTCG	-0.0411
CCATGATA	-0.0251
AGAGACCT	-0.104
ATACTCAG	0.243
ACATAAGC	0.107
GTGCACCA	-0.0263
AGGCCTAT	-0.0221
GCTAATGA	-0.0534

Continued:

| Sequence | PBM E-score |
| --- | --- |
| GATGCAAA | -0.0932 |
| GCTGAGAC | 0.156 |
| AGACGGCT | -0.183 |
| GCCGGGTA | -0.165 |
| ACACTTGC | 0.0216 |
| GTATAACA | 0.0937 |
| GGCGTGAC | -0.0779 |
| GATGCCGA | 0.0131 |
| GCTGGAGA | -0.0864 |
| AACATCCT | -0.104 |
| AAACCGGT | 0.0496 |
| CCGGTTCA | -0.177 |
| CGTCCGGC | 0.108 |
| GAAGAGGC | -0.191 |
| ATCCAACC | -0.0228 |
| AGCGTAGG | -0.146 |
| GCGGTCCA | -0.101 |
| GAGGTCAA | -0.0204 |
| ATGGTTCA | 0.0602 |
| CGGAAGGA | -0.0431 |
| ACTGATAC | -0.0948 |
| ATTGACAC | 0.0055 |
| AAATCTGC | 0.0434 |
| GCTCGCCC | -0.0659 |
| AACCCGTA | -0.0712 |

| Sequence | PBM E-score |
| --- | --- |
| CTGAGCGC | 0.0445 |
| AAGGAGTC | -0.203 |
| CTAGCATA | -0.0751 |
| GATAACTA | 0.1 |
| AAAATGCC | 0.0875 |
| CTTGATCC | 0.00678 |
| AAATGGTA | 0.161 |
| GTTCACAA | 0.0957 |
| CCTTAGAA | -0.113 |
| CCCATACG | -0.226 |
| AGATTCAA | 0.0464 |
| CAATATTG | 0.239 |
| AATTGTCA | 0.161 |
| CGGGGCCC | -0.0797 |
| TAGACAGA | 0.0711 |
| ACCGATTG | 0.201 |
| GTAACGAA | 0.143 |
| AACATGCT | 0.0561 |
| CAGCCAGA | -0.15 |
| GAAAGCTC | -0.312 |
| AAAAGAGT | -0.165 |
| AGAGAGGC | -0.297 |
| CGTATGCA | 0.0795 |
| CTGGCATA | 0.0405 |
| TCTAGTCA | -0.0499 |

Copied from the entries so far (5 entries):

| Sequence | PBM E-score |
| --- | --- |
| CAGCCAGA | -0.15 |
| GAAAGCTC | -0.312 |
| AAAAGAGT | -0.165 |
| AGAGAGGC | -0.297 |
| CGTATGCA | 0.0795 |

Continued.

| Sequence | PBM E-score |
| --- | --- |
| CACCACGC | -0.155 |
| CATAAGCC | 0.0914 |
| CAACGAGG | 0.0732 |
| GTACATGA | -0.0468 |
| GAGGGTCA | -0.25 |
| TGCTCAAA | -0.149 |
| CAACGAGA | 0.035 |
| CCGCGGTA | 0.142 |
| GCTCTTAC | 0.19 |
| ATATCGAG | 0.134 |
| ACGAAGCA | 0.0556 |
| GACTGAGC | -0.179 |
| CATCATAC | 0.0209 |
| ATTATCGA | 0.107 |
| GGGGTCGA | -0.114 |
| GCAAATAC | 0.0468 |
| CCCTCCTA | -0.207 |
| AATGCTCT | -0.0761 |
| AATGTTTG | -0.00136 |
| GATGGAAC | -0.0151 |
| GCCTAGTA | -0.147 |
| CATTATAA | 0.104 |
| AGAGTTAC | -0.204 |
| AAGCATAG | -0.278 |
| ACAGTTGG | -0.0629 |

| Sequence | PBM E-score |
| --- | --- |
| ATCCTAAG | -0.0893 |
| GTTTCCTA | 0.0519 |
| ACAGCAAC | 0.198 |
| CGTATCAC | 0.148 |
| CATTGTAC | 0.0995 |
| AAAACGGA | 0.121 |
| GATACAAA | 0.199 |
| AAAGACGT | 0.0499 |
| CATGGTAG | -0.0532 |
| CAGCGGGG | -0.126 |
| AAGCGTGG | 0.0305 |
| CCAATACG | -0.014 |
| GACACGGA | 0.123 |
| AAGAAATT | 0.235 |
| GACCTACA | -0.0764 |
| AGAACGCT | -0.0822 |
| CTGCAATA | -0.0664 |
| GAGATACA | 0.184 |
| AGGATCAG | -0.0986 |
| TTCCAGAA | 0.0621 |
| CTTACCCA | 0.123 |
| TGTGACAA | 0.0395 |
